Data reported in the supplement of paper PMC12823440, “Inhibitors supercharge kinase turnover through native proteolytic circuits” (Nature, 2025).
Where a name gives a salt, the structure may show the parent alone. The list shows a part of the results. Hit calls seldom repeat between salt and free forms of one compound.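 Kinases, fused to nanoluciferase, were expressed in K562 cells; luminescence was measured every 4 h from 2 to 18 h as percent of control (DMSO = 100%, positive control = 0%). A time point is decreased if signal falls significantly (2 sigma). Hits were called by the authors by a rule that is not shown; the count of time points alone does not decide it.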

Chains of the proteins cited; added tags and fusions are not shown.
UniProt P29317, whole entry: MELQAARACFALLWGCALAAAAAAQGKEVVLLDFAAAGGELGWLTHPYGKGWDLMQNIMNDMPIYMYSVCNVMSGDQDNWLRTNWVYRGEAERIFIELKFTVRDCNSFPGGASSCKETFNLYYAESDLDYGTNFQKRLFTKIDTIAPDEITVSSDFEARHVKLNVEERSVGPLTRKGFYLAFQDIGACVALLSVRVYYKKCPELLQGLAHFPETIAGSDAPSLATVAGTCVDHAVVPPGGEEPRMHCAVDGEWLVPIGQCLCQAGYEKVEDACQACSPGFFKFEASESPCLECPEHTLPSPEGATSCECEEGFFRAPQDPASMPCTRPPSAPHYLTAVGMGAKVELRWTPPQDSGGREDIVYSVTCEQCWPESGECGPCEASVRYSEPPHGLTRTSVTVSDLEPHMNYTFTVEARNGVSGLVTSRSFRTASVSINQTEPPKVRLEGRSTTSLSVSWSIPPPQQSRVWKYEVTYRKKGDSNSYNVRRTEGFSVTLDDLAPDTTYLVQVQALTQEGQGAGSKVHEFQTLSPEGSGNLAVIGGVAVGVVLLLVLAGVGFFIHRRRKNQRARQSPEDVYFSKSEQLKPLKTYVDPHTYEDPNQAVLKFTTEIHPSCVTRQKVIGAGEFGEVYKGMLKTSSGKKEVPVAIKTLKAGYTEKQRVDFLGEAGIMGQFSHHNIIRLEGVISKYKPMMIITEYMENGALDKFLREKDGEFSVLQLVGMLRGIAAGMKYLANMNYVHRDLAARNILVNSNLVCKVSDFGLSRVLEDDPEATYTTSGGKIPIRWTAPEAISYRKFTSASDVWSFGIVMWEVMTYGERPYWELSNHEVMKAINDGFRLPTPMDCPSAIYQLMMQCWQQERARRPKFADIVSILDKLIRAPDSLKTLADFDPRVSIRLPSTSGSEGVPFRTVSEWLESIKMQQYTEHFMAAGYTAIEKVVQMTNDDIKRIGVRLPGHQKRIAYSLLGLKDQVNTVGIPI
UniProt P21860, whole entry: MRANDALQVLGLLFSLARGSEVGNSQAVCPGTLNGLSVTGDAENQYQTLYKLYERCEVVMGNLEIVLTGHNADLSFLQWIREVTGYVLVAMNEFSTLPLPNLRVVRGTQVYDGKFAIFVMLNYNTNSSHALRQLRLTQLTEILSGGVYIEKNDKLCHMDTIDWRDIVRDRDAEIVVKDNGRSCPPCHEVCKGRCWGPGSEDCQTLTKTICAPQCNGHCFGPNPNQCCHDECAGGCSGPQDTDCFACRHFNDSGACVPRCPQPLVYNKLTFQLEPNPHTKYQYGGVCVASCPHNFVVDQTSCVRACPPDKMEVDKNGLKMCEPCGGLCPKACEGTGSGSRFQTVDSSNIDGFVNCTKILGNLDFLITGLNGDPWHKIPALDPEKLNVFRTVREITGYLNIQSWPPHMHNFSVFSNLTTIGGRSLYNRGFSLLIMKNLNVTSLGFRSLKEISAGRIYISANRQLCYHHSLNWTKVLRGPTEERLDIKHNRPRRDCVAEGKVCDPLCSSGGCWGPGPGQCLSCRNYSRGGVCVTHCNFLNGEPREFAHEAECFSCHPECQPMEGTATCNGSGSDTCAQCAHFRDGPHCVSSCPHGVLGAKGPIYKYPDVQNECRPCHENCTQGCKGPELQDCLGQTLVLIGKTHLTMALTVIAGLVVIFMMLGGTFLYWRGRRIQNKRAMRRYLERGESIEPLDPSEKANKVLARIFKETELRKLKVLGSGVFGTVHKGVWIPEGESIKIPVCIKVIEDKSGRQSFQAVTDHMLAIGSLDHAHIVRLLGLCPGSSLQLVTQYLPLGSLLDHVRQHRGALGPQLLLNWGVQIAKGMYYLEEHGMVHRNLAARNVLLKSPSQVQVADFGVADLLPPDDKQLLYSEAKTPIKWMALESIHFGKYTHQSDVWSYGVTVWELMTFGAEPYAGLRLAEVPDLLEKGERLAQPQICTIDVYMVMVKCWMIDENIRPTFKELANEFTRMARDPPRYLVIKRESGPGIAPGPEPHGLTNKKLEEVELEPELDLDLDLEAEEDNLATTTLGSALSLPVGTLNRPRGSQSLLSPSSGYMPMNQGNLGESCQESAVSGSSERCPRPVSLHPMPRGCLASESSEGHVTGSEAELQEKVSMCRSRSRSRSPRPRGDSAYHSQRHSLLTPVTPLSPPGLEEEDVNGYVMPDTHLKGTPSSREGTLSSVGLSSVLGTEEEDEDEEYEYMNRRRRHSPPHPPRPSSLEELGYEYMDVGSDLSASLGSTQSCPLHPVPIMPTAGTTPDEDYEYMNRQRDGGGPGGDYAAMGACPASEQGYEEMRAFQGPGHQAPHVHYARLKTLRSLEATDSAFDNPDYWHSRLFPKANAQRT
UniProt Q15303, whole entry R711C: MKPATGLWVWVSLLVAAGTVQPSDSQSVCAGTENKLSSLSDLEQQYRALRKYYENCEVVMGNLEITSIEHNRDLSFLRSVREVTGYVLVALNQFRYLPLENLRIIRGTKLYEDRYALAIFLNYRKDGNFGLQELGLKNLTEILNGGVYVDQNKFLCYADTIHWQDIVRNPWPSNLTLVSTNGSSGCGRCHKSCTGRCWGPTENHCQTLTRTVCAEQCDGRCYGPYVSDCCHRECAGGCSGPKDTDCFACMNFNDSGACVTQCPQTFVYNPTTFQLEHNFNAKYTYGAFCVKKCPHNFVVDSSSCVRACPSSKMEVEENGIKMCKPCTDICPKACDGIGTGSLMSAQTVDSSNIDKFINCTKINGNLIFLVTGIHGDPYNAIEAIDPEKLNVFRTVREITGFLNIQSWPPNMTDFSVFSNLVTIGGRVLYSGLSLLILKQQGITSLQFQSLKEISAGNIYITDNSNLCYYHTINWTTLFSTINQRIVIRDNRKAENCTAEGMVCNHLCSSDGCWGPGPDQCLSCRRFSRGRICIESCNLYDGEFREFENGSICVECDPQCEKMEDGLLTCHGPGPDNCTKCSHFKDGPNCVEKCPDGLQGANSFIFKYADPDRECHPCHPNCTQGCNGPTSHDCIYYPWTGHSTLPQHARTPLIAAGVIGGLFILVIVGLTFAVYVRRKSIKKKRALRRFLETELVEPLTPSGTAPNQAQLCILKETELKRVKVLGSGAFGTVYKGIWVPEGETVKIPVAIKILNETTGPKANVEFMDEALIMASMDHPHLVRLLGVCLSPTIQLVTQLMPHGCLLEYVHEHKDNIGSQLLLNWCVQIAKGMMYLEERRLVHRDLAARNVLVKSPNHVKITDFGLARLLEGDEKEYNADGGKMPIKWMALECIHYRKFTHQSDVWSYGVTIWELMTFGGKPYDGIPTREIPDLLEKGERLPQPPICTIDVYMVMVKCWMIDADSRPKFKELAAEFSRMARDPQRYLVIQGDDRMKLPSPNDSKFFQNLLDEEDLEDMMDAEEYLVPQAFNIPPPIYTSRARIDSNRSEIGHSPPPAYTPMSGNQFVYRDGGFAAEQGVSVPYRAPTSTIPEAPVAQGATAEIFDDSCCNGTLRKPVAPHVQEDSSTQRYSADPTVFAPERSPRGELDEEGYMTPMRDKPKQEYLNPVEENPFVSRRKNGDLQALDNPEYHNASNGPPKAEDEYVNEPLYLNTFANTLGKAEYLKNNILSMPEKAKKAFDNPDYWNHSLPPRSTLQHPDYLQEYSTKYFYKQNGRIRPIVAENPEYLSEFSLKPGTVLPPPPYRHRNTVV

How the values were obtained:
Experiment in all cases: kinase-Nluc reporter destabilization hit call (1 = scored as downregulated) (binary); higher = compound decreases kinase abundance
Details in all cases: K562, 2-18 h
[1] = molecular target: EGFR (UniProt P00533)
[2] = molecular target: EGFR_G719S (UniProt P00533)
[3] = molecular target: EGFR_G719S_T790M (UniProt P00533)
[4] = molecular target: EGFR_L718V (UniProt P00533)
[5] = molecular target: EGFR_L858R (UniProt P00533)
[6] = molecular target: EGFR_L861Q (UniProt P00533)
[7] = molecular target: EGFR_T790M (UniProt P00533)
[8] = molecular target: EPHA2 (UniProt P29317)
[9] = molecular target: ERBB3 (UniProt P21860)
[10] = molecular target: ERBB4_R711C (clone: ERBB4_mut) (UniProt Q15303)

Measured: kinase-Nluc reporter destabilization hit call

CNC(=O)c1ccccc1Nc1cc(Nc2ccc(N3CCOCC3)cc2OC)ncc1C(F)(F)F [PND-1186 (hydrochloride)]
inactive: [1]; 10 µM 0 | [2]; 10 µM 0 | [3]; 10 µM 0 | [4]; 10 µM 0 | [5]; 10 µM 0 | [6]; 10 µM 0 | [7]; 10 µM 0 | [8]; 10 µM 0 | [9]; 10 µM 0 | [10]; 10 µM 0

COc1ccc(S(=O)(=O)Nc2ccccc2CN(C)C/C=C/c2ccc(Cl)cc2)cc1 [KN-92 (hydrochloride)]
inactive: [1]; 2.5 µM 0 | [2]; 2.5 µM 0 | [3]; 2.5 µM 0 | [4]; 2.5 µM 0 | [5]; 2.5 µM 0 | [6]; 2.5 µM 0 | [7]; 2.5 µM 0 | [8]; 2.5 µM 0 | [9]; 2.5 µM 0 | [10]; 2.5 µM 0

Clc1ccc(C2(c3ccc(-c4cn[nH]c4)cc3)CCNCC2)cc1 [AT7867 (dihydrochloride)]
inactive: [1]; 2.5 µM 0 | [2]; 2.5 µM 0 | [3]; 2.5 µM 0 | [4]; 2.5 µM 0 | [5]; 2.5 µM 0 | [6]; 2.5 µM 0 | [7]; 2.5 µM 0 | [8]; 2.5 µM 0 | [9]; 2.5 µM 0 | [10]; 2.5 µM 0

CC(C)(C)n1nc(-c2cccc3ccccc23)c2c(N)ncnc21 [1-Naphthyl PP1]
inactive: [1]; 10 µM 0 | [2]; 10 µM 0 | [3]; 10 µM 0 | [4]; 10 µM 0 | [5]; 10 µM 0 | [6]; 10 µM 0 | [7]; 10 µM 0 | [8]; 10 µM 0 | [9]; 10 µM 0 | [10]; 10 µM 0

CN(C)C(=O)c1cc2cnc(Nc3ccc(N4CCNCC4)cn3)nc2n1C1CCCC1 [Ribociclib]
inactive: [1]; 10 µM 0 | [2]; 10 µM 0 | [3]; 10 µM 0 | [4]; 10 µM 0 | [5]; 10 µM 0 | [6]; 10 µM 0 | [7]; 10 µM 0 | [8]; 10 µM 0 | [9]; 10 µM 0 | [10]; 10 µM 0

O=C(Nc1cnn2ccc(N3CCC[C@@H]3c3cc(F)ccc3F)nc12)N1CC[C@H](O)C1 [Larotrectinib]
inactive: [1]; 10 µM 0 | [2]; 10 µM 0 | [3]; 10 µM 0 | [4]; 10 µM 0 | [5]; 10 µM 0 | [6]; 10 µM 0 | [7]; 10 µM 0 | [8]; 10 µM 0 | [9]; 10 µM 0 | [10]; 10 µM 0

CCS(=O)(=O)N1CC(CC#N)(n2cc(-c3ncnc4[nH]ccc34)cn2)C1 [Baricitinib (phosphate)]
inactive: [1]; 10 µM 0 | [2]; 10 µM 0 | [3]; 10 µM 0 | [4]; 10 µM 0 | [5]; 10 µM 0 | [6]; 10 µM 0 | [7]; 10 µM 0 | [8]; 10 µM 0 | [9]; 10 µM 0 | [10]; 10 µM 0

CC(=O)c1c(C)c2cnc(Nc3ccc(N4CCNCC4)cn3)nc2n(C2CCCC2)c1=O [Palbociclib (monohydrochloride)]
inactive: [1]; 10 µM 0 | [2]; 10 µM 0 | [3]; 10 µM 0 | [4]; 10 µM 0 | [5]; 10 µM 0 | [6]; 10 µM 0 | [7]; 10 µM 0 | [8]; 10 µM 0 | [9]; 10 µM 0 | [10]; 10 µM 0

COc1ccnc(C[S+]([O-])c2nc3cc(-n4cccc4)ccc3[nH]2)c1C (stereo not given) [Ilaprazole]
inactive: [1]; 10 µM 0 | [2]; 10 µM 0 | [3]; 10 µM 0 | [4]; 10 µM 0 | [5]; 10 µM 0 | [6]; 10 µM 0 | [7]; 10 µM 0 | [8]; 10 µM 0 | [9]; 10 µM 0 | [10]; 10 µM 0

Not a retest: 2 of the compounds above.
Clc1ccc(C2(c3ccc(-c4cn[nH]c4)cc3)CCNCC2)cc1 [AT7867 (dihydrochloride)]
inactive: [1]; 2.5 µM 0 | [2]; 2.5 µM 0 | [3]; 2.5 µM 0 | [4]; 2.5 µM 0 | [5]; 2.5 µM 0 | [6]; 2.5 µM 0 | [7]; 2.5 µM 0 | [8]; 2.5 µM 0 | [9]; 2.5 µM 0 | [10]; 2.5 µM 0

CC(C)(C)n1nc(-c2cccc3ccccc23)c2c(N)ncnc21 [1-Naphthyl PP1]
inactive: [1]; 10 µM 0 | [2]; 10 µM 0 | [3]; 10 µM 0 | [4]; 10 µM 0 | [5]; 10 µM 0 | [6]; 10 µM 0 | [7]; 10 µM 0 | [8]; 10 µM 0 | [9]; 10 µM 0 | [10]; 10 µM 0

(more compounds)

COc1ccc2c(c1)C(c1ccc(F)cc1)=C(CN1CCCC1)CO2 [AX-024 hydrochloride]
inactive: [1]; 10 µM 0 | [2]; 10 µM 0 | [3]; 10 µM 0 | [4]; 10 µM 0 | [5]; 10 µM 0 | [6]; 10 µM 0 | [7]; 10 µM 0 | [8]; 10 µM 0 | [9]; 10 µM 0 | [10]; 10 µM 0

COc1cc2nccc(Nc3cc(OC)c(OC)c(OC)c3)c2cc1OC [GAK inhibitor 49 (hydrochloride)]
inactive: [1]; 10 µM 0 | [2]; 10 µM 0 | [3]; 10 µM 0 | [4]; 10 µM 0 | [5]; 10 µM 0 | [6]; 10 µM 0 | [7]; 10 µM 0 | [8]; 10 µM 0 | [9]; 10 µM 0 | [10]; 10 µM 0

O=C(c1ccc(F)c(F)c1Nc1ccc(I)cc1F)N1CC(O)([C@@H]2CCCCN2)C1 [Cobimetinib (hemifumarate)]
inactive: [1]; 10 µM 0 | [2]; 10 µM 0 | [3]; 10 µM 0 | [4]; 10 µM 0 | [5]; 10 µM 0 | [6]; 10 µM 0 | [7]; 10 µM 0 | [8]; 10 µM 0 | [9]; 10 µM 0 | [10]; 10 µM 0

FC(F)(F)c1ccc(CNc2ccc(Cc3c[nH]c4ncc(Cl)cc34)cn2)cn1 [Pexidartinib]
inactive: [1]; 10 µM 0 | [2]; 10 µM 0 | [3]; 10 µM 0 | [4]; 10 µM 0 | [5]; 10 µM 0 | [6]; 10 µM 0 | [7]; 10 µM 0 | [8]; 10 µM 0 | [9]; 10 µM 0 | [10]; 10 µM 0

Nc1ncnc2c1c(-c1ccc(Oc3ccccc3)cc1)nn2[C@@H]1CCCNC1
inactive: [1]; 2.5 µM 0 | [2]; 2.5 µM 0 | [3]; 2.5 µM 0 | [4]; 2.5 µM 0 | [5]; 2.5 µM 0 | [6]; 2.5 µM 0 | [7]; 2.5 µM 0 | [8]; 2.5 µM 0 | [9]; 2.5 µM 0 | [10]; 2.5 µM 0
